Source: patent US20100152129A1 (priority 2008, published 2010)

Tested on: Panc-1 cells
Test: Propidium iodide-based fluorescence cytotoxicity assay
Format: cell-based
Settings: single agent
Description: The combination of P276-00 and Gemcitabine was screened for its synergistic effect in Panc-1 cells using propidium iodide based fluorescence cytotoxicity assay.
Test System: The Panc-1 cell line was procured from ATCC (American Tissue type Culture Collection), USA. Catalog number: CRL-1469 and the frozen vial was stored in liquid nitrogen container. Propidium iodide dye was procured from Sigma-Aldrich, USA. Catalog number: P-4170-100 mg and it was stored at 2-8° C.
Method: Panc-1 cells were seeded at a density of 2000 cells/well, in a 200 μL in tissue culture grade 96 well plate and allowed to recover for 24 hrs in a humidified 5%±0.2 CO2 incubator at 37° C.±0.5° C. After 24 hrs, 1 μL of 200 X (200 times higher than required concentration is denoted as 200×) compound (dissolved in neat DMSO), as per Table 1 or 2 was added to the wells. The final DMSO concentration was 0.5% in wells. The plate was incubated for 24 hrs in humidified 5%±0.2 CO2 incubator at 37±0.5° C.
After 24 hrs Minimum Essential Medium (MEM) from the Gemcitabine treated wells was removed and washed two times with fresh MEM and followed by addition of 200 μL of fresh MEM per well. 1 μL of 200× (200 times higher than required concentration is denoted as 200×) compound (dissolved in neat DMSO) was then added as per the Table 1 and 2 designs. The final DMSO concentration was 0.5% in wells which also served as the vehicle control for the study. After 72 hrs the plate was removed from CO2 incubator and spent MEM aspirated from the wells and supplemented with fresh MEM. This was followed by addition of 25 μL of propidium iodide (50 μg/ml in medium) per well. The same plate was frozen at −80° C. for 24 hrs and then thawed and allowed to come to room temperature. The fluorescence at a wavelength of 530 nm excitation and 620 nm emission was read.
The percent cytotoxicity was calculated using the following formula

Row | Compound | Fluorescence Unit (60 nM) | Fluorescence Unit (120 nM) | Fluorescence Unit (240 nM) | Fluorescence Unit (480 nM) | Fluorescence Unit (960 nM) | Fluorescence Unit (0.1 nM)
1 | CN1CC[C@@H](c2c(O)cc(O)c3c(=O)cc(-c4ccccc4Cl)oc23)[C@@H]1CO.Cl (relative stereo) [P276-00, (+)-trans-2-(2-Chloro-phenyl)-5,7-dihydroxy-8-(2-hydroxy-methyl-1-methyl-pyrrolidin-3-y1)-chromen-4-one hydrochloride] | 24558 | 22768 | 22212 | 18831 | 15416 | 
2 | Nc1ccn([C@@H]2O[C@H](CO)[C@@H](O)C2(F)F)c(=O)n1 [Gemcitabine, 2′, 2′-difluorodeoxycytidine] |  |  |  |  |  | 31455
